We go through two substances from paper PMC12431652.

Protein sequences, listed by entry. Tags and fused reporters are not part of them.
UniProt Q13263: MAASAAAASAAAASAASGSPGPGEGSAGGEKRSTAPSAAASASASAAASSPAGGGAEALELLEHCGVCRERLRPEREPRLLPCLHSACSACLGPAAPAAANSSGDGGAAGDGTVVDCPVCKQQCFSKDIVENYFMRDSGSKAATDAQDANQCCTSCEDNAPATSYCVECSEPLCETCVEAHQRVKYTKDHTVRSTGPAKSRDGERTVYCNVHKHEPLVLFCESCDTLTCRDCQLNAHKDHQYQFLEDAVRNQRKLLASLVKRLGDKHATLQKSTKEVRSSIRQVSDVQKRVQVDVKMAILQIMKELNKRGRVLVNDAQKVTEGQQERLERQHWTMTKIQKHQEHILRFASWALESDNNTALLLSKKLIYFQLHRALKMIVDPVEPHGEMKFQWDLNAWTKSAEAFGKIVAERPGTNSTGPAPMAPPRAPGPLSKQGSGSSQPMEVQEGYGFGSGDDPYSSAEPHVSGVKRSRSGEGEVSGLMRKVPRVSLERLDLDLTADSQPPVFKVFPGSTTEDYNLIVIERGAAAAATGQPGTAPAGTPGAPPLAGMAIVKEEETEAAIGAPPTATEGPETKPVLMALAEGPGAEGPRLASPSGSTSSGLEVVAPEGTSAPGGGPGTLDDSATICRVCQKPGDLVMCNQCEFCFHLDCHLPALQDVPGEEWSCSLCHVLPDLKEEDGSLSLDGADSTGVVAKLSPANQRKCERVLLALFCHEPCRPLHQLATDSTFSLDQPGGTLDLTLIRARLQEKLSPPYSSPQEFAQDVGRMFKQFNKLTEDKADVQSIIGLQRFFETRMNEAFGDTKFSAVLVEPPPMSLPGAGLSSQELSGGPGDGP

For assay [1], the target named is PIV5 V protein expressed in PIV5-infected cells (Parainfluenza virus 5 (strain W3A)) (UniProt P11207). As to the kind of experiment: co-IP.
Assay [2] deals with Tripartite Motif Protein 28 (TRIM28), endogenous in A549 cells (human (endogenous in A549)) (UniProt Q13263). As to the kind of experiment: co-IP.

Results are given in words; binding and its absence hold for the method and conditions named. Binding seen in cells or lysates may run through a third protein. Some entries that bind do so weakly or less than the wild type.

Consider “Tripartite Motif Protein 28 (TRIM28), endogenous in A549 cells (from UniProt Q13263 1-835)”, for which, in assay [1], the binding entry is “binds”.
Regarding “PIV5 V protein expressed in PIV5-infected cells (from UniProt P11207 1-222)”, the binding entry in assay [2] is reported as “binds”.
